According to PMC9508095:
Results are given in words; binding and its absence hold for the method and conditions named. Binding seen in cells or lysates may run through a third protein. Some entries that bind do so weakly or less than the wild type. For some assays here: Where a sequence is shown, tags or fusion partners need not be part of it.

Sequences of proteins named here, by UniProt entry; tags and fusion partners are left off.
UniProt Q7Z434: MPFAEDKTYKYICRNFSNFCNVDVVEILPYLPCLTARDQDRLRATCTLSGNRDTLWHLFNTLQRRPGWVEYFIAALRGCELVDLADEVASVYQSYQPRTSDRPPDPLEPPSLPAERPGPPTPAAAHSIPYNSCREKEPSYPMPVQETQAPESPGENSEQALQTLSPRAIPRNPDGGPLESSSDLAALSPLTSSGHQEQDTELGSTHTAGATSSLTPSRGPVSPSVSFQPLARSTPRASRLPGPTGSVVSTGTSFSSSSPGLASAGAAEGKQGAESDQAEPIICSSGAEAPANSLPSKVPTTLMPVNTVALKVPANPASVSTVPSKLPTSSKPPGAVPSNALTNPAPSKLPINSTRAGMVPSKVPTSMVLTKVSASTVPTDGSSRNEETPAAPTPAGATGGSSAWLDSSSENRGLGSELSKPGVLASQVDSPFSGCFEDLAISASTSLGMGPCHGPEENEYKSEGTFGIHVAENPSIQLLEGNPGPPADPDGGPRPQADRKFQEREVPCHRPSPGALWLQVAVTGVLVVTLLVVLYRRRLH
UniProt P15682: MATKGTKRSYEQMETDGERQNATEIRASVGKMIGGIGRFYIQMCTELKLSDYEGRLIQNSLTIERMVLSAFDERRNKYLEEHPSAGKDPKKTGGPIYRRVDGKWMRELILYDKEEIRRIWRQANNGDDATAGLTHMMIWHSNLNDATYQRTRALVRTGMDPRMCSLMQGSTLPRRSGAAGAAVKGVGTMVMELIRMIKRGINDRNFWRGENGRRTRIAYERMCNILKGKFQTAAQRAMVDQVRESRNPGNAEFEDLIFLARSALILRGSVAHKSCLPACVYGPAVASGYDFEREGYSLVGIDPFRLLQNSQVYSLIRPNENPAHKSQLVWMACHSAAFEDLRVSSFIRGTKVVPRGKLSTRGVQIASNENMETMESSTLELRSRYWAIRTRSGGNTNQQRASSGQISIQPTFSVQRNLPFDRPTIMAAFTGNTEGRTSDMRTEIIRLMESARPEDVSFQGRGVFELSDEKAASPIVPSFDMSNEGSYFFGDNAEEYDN

B1: Flag-tagged IKKε (protein, UniProt Q14164 1-716)
chain: MQSTANYLWHTDDLLGQGATASVYKARNKKSGELVAVKVFNTTSYLRPREVQVREFEVLRKLNHQNIVKLFAVEETGGSRQKVLVMEYCSSGSLLSVLESPENAFGLPEDEFLVVLRCVVAGMNHLRENGIVHRDIKPGNIMRLVGEEGQSIYKLTDFGAARELDDDEKFVSVYGTEEYLHPDMYERAVLRKPQQKAFGVTVDLWSIGVTLYHAATGSLPFIPFGGPRRNKEIMYRITTEKPAGAIAGAQRRENGPLEWSYTLPITCQLSLGLQSQLVPILANILEVEQAKCWGFDQFFAETSDILQRVVVHVFSLSQAVLHHIYIHAHNTIAIFQEAVHKQTSVAPRHQEYLFEGHLCVLEPSVSAQHIAHTTASSPLTLFSTAIPKGLAFRDPALDVPKFVPKVDLQADYNTAKGVLGAGYQALRLARALLDGQELMFRGLHWVMEVLQATCRRTLEVARTSLLYLSSSLGTERFSSVAGTPEIQELKAAAELRSRLRTLAEVLSRCSQNITETQESLSSLNRELVKSRDQVHEDRSIQQIQCCLDKMNFIYKQFKKSRMRPGLGYNEEQIHKLDKVNFSHLAKRLLQVFQEECVQKYQASLVTHGKRMRVVHETRNHLRLVGCSVAACNTEAQGVQESLSKLLEELSHQLLQDRAKGAQASPPPIAPYPSPTRKDLLLHMQELCEGMKLLASDLLDNNRIIERLNRVPAPPDV

What was measured:
[1] = biological target: Flag-tagged IMP α7 (human) (UniProt O60684); assay: co-IP
[2] = biological target: Myc-tagged MAVS (human) (UniProt Q7Z434); assay: co-IP; HEK293T co-transfected with the indicated plasmids, lysed 36 h p.t. in IP lysis buffer (Pierce), primary antibody then Protein G-Agarose at 4 °C, western blot; in some panels a third protein (BinCARD1 or TRAF3) was coexpressed

Molecule | binding [1] | binding [2]
WSNNP (from UniProt P15682 1-498) | binds | –
B1 | – | binds
